From paper PMC6763497, “Argonaute bypasses cellular obstacles without hindrance during target search”

Target: T1, Lin28b (UniProt Q6ZN17)
T1 sequence (looked up, limits assumed): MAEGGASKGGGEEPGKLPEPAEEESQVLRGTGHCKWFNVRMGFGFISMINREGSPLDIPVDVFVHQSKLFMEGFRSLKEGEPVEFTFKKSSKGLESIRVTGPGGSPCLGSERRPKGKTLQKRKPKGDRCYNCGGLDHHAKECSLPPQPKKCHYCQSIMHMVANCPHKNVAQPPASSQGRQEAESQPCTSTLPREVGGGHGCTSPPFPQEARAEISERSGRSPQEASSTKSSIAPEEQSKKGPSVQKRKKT
Assay: single-molecule immobilization
Settings: DNA held on surface via His-Lin28b and biotin-anti-His antibody; amino-C6-dT; 50 mM Tris-HCl pH 8.0, 100 mM NaCl (10-200 mM in salt series); temperature not given; TIRF smFRET, 100 ms; recombinant protein; protein details: His (pET28-a); label: Cy5; folded or branched DNA

“TTTTTTTTTTTTTTTTTTTACTACCTCTTTTTTTTTTTTTTTTTTTTGCGCTATGCGGTTGTATAGTTTTAGGGTCACACCCACCACTGGGAGATAACTATACAATCGCATAGCGCTTTTTTTTTTTTTTTTTTTTTTTTTTTTTTTTTACTACCTCTTTTTTTTTTTTTTTTT [Lin28 double target]”: binds.

For at least one entry, the source does not settle the construct or the ends of the probe. At least one verdict was read from the data and is not stated in words by the source. Tags and fusion partners may be left off the protein sequences shown.
